# In the supplement of paper PMC11438910:
# The other results are listed elsewhere or left out. Most of these values are background signal.
# B1: 4-127.2 (protein)
# chain 1: QVQLQESGPGLVKPSETLSLTCAVSGYSVNSGHGWTWIRQSPGKGLEWIGYIGGGSGSSNYNPSLKSRVTISKDTSNNQLSLKLRSLTTADTAMYYCARRVPADRSGNDYWGQGVLVTVSS
# chain 2: QSVLTQPPSVSGDPGQRVTISCTGSSSNIGDYYGYWYQQFPGTAPKLLIFDDNNRPSGISDRFSGSKAGTSASLTITGLQPGDEADYYCGAWDGSLNAHVFGSGTKLTVL
# What was measured:
# Test in all cases: fluorescence intensity of antibody binding to polysaccharide-coupled beads; higher = stronger binding
# [1] = molecular target: pneumococcal polysaccharide Pn35C
# [2] = molecular target: pneumococcal polysaccharide Pn35F
# [3] = molecular target: pneumococcal polysaccharide Pn36
# [4] = molecular target: pneumococcal polysaccharide Pn37
# [5] = molecular target: pneumococcal polysaccharide Pn38
# [6] = molecular target: pneumococcal polysaccharide Pn39
# [7] = molecular target: pneumococcal polysaccharide Pn4
# [8] = molecular target: pneumococcal polysaccharide Pn40
# [9] = molecular target: pneumococcal polysaccharide Pn41A
# [10] = molecular target: pneumococcal polysaccharide Pn41F
# [11] = molecular target: pneumococcal polysaccharide Pn42
# [12] = molecular target: pneumococcal polysaccharide Pn43
# [13] = antibody concentration 2337.65 ng/mL
# [14] = antibody concentration 12500 ng/mL
# [15] = antibody concentration 0.1 ng/mL
# [16] = antibody concentration 0.534724 ng/mL
# [17] = antibody concentration 2.8593 ng/mL
# [18] = antibody concentration 15.2894 ng/mL
# [19] = antibody concentration 81.7561 ng/mL
# [20] = antibody concentration 437.17 ng/mL
binder,measurement,setting,value
B1,fluorescence intensity,[1]; [13],20.5 MFI
same,fluorescence intensity,[1]; [14],26 MFI
same,fluorescence intensity,[2]; [15],18 MFI
same,fluorescence intensity,[2]; [16],19 MFI
same,fluorescence intensity,[2]; [17],19.5 MFI
same,fluorescence intensity,[2]; [18],18 MFI
same,fluorescence intensity,[2]; [19],18.5 MFI
same,fluorescence intensity,[2]; [20],18.5 MFI
same,fluorescence intensity,[2]; [13],22.5 MFI
same,fluorescence intensity,[2]; [14],27.2 MFI
same,fluorescence intensity,[3]; [15],14.5 MFI
same,fluorescence intensity,[3]; [16],14.8 MFI
same,fluorescence intensity,[3]; [17],15 MFI
same,fluorescence intensity,[3]; [18],14.5 MFI
same,fluorescence intensity,[3]; [19],13.5 MFI
same,fluorescence intensity,[3]; [20],17 MFI
same,fluorescence intensity,[3]; [13],23 MFI
same,fluorescence intensity,[3]; [14],108 MFI
same,fluorescence intensity,[4]; [15],23.8 MFI
same,fluorescence intensity,[4]; [16],25 MFI
same,fluorescence intensity,[4]; [17],24.5 MFI
same,fluorescence intensity,[4]; [18],25.5 MFI
same,fluorescence intensity,[4]; [19],25 MFI
same,fluorescence intensity,[4]; [20],32 MFI
same,fluorescence intensity,[4]; [13],78.5 MFI
same,fluorescence intensity,[4]; [14],397 MFI
same,fluorescence intensity,[5]; [15],26.5 MFI
same,fluorescence intensity,[5]; [16],25 MFI
same,fluorescence intensity,[5]; [17],26.5 MFI
same,fluorescence intensity,[5]; [18],24.2 MFI
same,fluorescence intensity,[5]; [19],26.2 MFI
same,fluorescence intensity,[5]; [20],24.8 MFI
same,fluorescence intensity,[5]; [13],28 MFI
same,fluorescence intensity,[5]; [14],42.5 MFI
same,fluorescence intensity,[6]; [15],17.2 MFI
same,fluorescence intensity,[6]; [16],16.8 MFI
same,fluorescence intensity,[6]; [17],16.5 MFI
same,fluorescence intensity,[6]; [18],18 MFI
same,fluorescence intensity,[6]; [19],18 MFI
same,fluorescence intensity,[6]; [20],19 MFI
same,fluorescence intensity,[6]; [13],24 MFI
same,fluorescence intensity,[6]; [14],86.5 MFI
same,fluorescence intensity,[7]; [15],18.8 MFI
same,fluorescence intensity,[7]; [16],17 MFI
same,fluorescence intensity,[7]; [17],20 MFI
same,fluorescence intensity,[7]; [18],17 MFI
same,fluorescence intensity,[7]; [19],17 MFI
same,fluorescence intensity,[7]; [20],24 MFI
same,fluorescence intensity,[7]; [13],28 MFI
same,fluorescence intensity,[7]; [14],35 MFI
same,fluorescence intensity,[8]; [15],16 MFI
same,fluorescence intensity,[8]; [16],17 MFI
same,fluorescence intensity,[8]; [17],17.2 MFI
same,fluorescence intensity,[8]; [18],14.5 MFI
same,fluorescence intensity,[8]; [19],16.2 MFI
same,fluorescence intensity,[8]; [20],18.5 MFI
same,fluorescence intensity,[8]; [13],28 MFI
same,fluorescence intensity,[8]; [14],162 MFI
same,fluorescence intensity,[9]; [15],21.5 MFI
same,fluorescence intensity,[9]; [16],22.5 MFI
same,fluorescence intensity,[9]; [17],21.5 MFI
same,fluorescence intensity,[9]; [18],22 MFI
same,fluorescence intensity,[9]; [19],21.8 MFI
same,fluorescence intensity,[9]; [20],24 MFI
same,fluorescence intensity,[9]; [13],23 MFI
same,fluorescence intensity,[9]; [14],30 MFI
same,fluorescence intensity,[10]; [15],13.5 MFI
same,fluorescence intensity,[10]; [16],12.5 MFI
same,fluorescence intensity,[10]; [17],11.5 MFI
same,fluorescence intensity,[10]; [18],12.5 MFI
same,fluorescence intensity,[10]; [19],13 MFI
same,fluorescence intensity,[10]; [20],14 MFI
same,fluorescence intensity,[10]; [13],14 MFI
same,fluorescence intensity,[10]; [14],21 MFI
same,fluorescence intensity,[11]; [15],10.8 MFI
same,fluorescence intensity,[11]; [16],12 MFI
same,fluorescence intensity,[11]; [17],10 MFI
same,fluorescence intensity,[11]; [18],11 MFI
same,fluorescence intensity,[11]; [19],12 MFI
same,fluorescence intensity,[11]; [20],12.5 MFI
same,fluorescence intensity,[11]; [13],13.5 MFI
same,fluorescence intensity,[11]; [14],56.5 MFI
same,fluorescence intensity,[12]; [15],15.5 MFI
same,fluorescence intensity,[12]; [16],14.5 MFI
same,fluorescence intensity,[12]; [17],14.5 MFI
same,fluorescence intensity,[12]; [18],15 MFI
same,fluorescence intensity,[12]; [19],14.5 MFI
same,fluorescence intensity,[12]; [20],21.2 MFI
same,fluorescence intensity,[12]; [13],45.5 MFI
same,fluorescence intensity,[12]; [14],336 MFI

# Rewritten with tabs: part of the list above.
binder	measurement	setting	value
B1	fluorescence intensity	[2]; [20]	18.5 MFI
same	fluorescence intensity	[2]; [13]	22.5 MFI
same	fluorescence intensity	[2]; [14]	27.2 MFI
same	fluorescence intensity	[3]; [15]	14.5 MFI
